From publication PMC6334227
These are yes or no findings as the source states them, for the method shown. In cells and extracts the contact can be indirect. Binding calls can cover weak binding; strength is not graded here. Tags and fused reporters may be left off the sequences shown.

Chains of the proteins cited; added tags and fusions are not shown. Lines headed by an entry give the natural chain unless they say otherwise; changes in a name come on top.
UniProt O76388: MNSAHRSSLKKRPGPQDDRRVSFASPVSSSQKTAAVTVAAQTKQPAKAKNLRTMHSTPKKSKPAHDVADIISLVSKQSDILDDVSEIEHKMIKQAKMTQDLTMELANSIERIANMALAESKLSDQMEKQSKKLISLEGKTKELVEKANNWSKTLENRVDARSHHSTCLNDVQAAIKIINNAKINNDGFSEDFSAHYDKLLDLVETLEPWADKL
UniProt Q7JKT6: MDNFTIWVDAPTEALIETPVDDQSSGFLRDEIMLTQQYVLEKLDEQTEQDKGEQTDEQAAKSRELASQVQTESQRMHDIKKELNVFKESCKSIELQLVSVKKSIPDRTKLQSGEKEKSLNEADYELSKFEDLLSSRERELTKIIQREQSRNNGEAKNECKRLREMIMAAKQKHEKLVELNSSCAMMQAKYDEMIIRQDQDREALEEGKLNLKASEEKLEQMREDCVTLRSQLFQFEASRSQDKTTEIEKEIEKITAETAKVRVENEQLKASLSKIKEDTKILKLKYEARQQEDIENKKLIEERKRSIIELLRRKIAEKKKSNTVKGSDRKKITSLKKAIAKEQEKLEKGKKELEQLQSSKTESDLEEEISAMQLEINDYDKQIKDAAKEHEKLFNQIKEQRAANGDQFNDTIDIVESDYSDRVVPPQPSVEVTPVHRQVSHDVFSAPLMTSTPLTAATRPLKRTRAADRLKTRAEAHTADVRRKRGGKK

Target: T1, BRD-1::tag (C. elegans) (UniProt Q21209)
T1 sequence: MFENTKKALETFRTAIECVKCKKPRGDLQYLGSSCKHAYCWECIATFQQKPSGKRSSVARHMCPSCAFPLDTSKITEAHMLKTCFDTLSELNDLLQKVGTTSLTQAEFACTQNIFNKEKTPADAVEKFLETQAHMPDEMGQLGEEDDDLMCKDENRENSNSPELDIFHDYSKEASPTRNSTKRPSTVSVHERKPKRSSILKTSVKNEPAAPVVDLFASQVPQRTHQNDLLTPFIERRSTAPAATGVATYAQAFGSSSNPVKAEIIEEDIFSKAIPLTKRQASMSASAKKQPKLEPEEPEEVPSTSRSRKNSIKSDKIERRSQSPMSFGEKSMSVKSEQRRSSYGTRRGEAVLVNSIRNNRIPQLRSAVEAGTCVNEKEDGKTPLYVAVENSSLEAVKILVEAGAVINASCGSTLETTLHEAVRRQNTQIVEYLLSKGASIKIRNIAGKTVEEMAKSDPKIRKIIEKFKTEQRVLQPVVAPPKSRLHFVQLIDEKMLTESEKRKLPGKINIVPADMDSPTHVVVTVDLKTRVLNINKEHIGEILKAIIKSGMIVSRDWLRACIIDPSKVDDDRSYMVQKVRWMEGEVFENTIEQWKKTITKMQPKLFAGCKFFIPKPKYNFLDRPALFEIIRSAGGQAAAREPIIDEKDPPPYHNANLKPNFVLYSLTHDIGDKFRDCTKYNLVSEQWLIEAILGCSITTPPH
Assay: co-IP; tandem immunoaffinity purification of the native CeBCD complex from dwIs3 worms (HA then Myc antibody columns, TEV elution), Western blot; soluble (S) and chromatin-bound (C) fractions, untreated and 12 h after 75 Gy IR; mock purification as control

Substance | binding
SYP-2 (from UniProt O76388) | binds
SYP-1 (from UniProt Q7JKT6) | binds
